Results as given in PubChem BioAssay AID2685 (National Center for Advancing Translational Sciences (NCATS), 2010).
This is one part of the list. The main result of the screen is listed elsewhere. These columns were measured beside it and carry no call. Compounds called inactive in the main read-out are mostly missing here. Potencies come from curve fits of mixed quality, noted in brackets.

Assay: qHTS Assay for Lipid Storage Modulators in Drosophila S3 Cells;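 for cell number change: cells counted by Cell Tracker Red CMTPX staining in the red channel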
Conditions: BODIPY lipid droplet fluorescence, 18-24 h; for cell number change: measured here: cell count max response, cells fed with added oleic acid
Summary of the method: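 Drosophila S3 cells got compounds at several concentrations plus oleic acid (400 uM solution). Laser-scanning cytometry with 488 nm excitation read lipid droplets at 500-530 nm and cells at 575-640 nm. Percent activity was relative to 20 uM Triacsin C.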

[1] = measured here: cell number channel AC50, cells fed with added oleic acid
[2] = measured here: lipid fluorescence (Fed channel) AC50, cells fed with added oleic acid

| SMILES | cell number change | AC50 [1] | AC50 [2] |
| --- | --- | --- | --- |
| CCC(=O)c1ccc(Oc2ccc(C(=O)c3ccc(C)cc3)cc2[N+](=O)[O-])cc1 | -9.79% | 0.146 µM [falling, full curve, poor fit] | – |
| Cc1cccc(N(CC(=O)NC2CCCC2)C(=O)CCCC(=O)Nc2ccccn2)c1 | -0.955% | – | 29.1 µM [rising, single point] |
| O=C1c2ccc([N+](=O)[O-])cc2S(=O)(=O)N1Cc1ccccc1 | -21.3% | – | 3.66 µM [falling, full curve] |
| CCCCC(CC)COP(=O)(OCC(CC)CCCC)OCC(CC)CCCC (stereo not given) | 16.8% | – | 16.4 µM [rising, single point] |
| COC(=O)C(C(=O)NCC1CCCO1)C1CCCC1 (stereo not given) | – | – | 5.8 µM [falling, single point] |
| CCCn1c(=O)c(C(=O)NNC(=O)c2ccccc2Cl)c(O)c2ccccc21 | -0.855% | – | 29.1 µM [falling, partial curve, poor fit] |
| CCOC(=O)N1CCC(Nc2c(-c3ccccc3)c(=O)c2=O)CC1 | 140% | 29.1 µM [rising, single point] | – |
| Cc1cccc(C)c1NC(=O)CSc1nnc(CCCCCNC(=O)OC(C)(C)C)o1 | -23.6% | – | 2.06 µM [rising, partial curve] |
| Cc1c(Cl)c([N+](=O)[O-])nn1CCCC(=O)Nc1sc2c(c1C(N)=O)CCC(C)C2 (stereo not given) | 11% | – | 8.2 µM [rising, partial curve] |
| COc1cccc(NC(=O)CN(C)C(=O)CCN2C(=O)C3CC=CCC3C2=O)c1 (stereo not given) | -19% | 3.66 µM [falling, single point] | – |
| CCCCNC(=O)c1onc(CSc2ccc(F)cc2)c1C(=O)NCCCC | 2.91% | – | 2.06 µM [rising, partial curve, poor fit] |
| O=C(CCc1ccc(S(=O)(=O)NCc2ccccc2)cc1)NCc1ccc2c(c1)OCO2 | 19.1% | – | 6.51 µM [rising, single point] |
| CCOCCn1ccc2c(OCC(=O)Nc3ccc(OC)c(OC)c3)cccc2c1=O | 73.5% | 23.1 µM [rising, partial curve] | – |
| COc1cc(OC)cc(C(=O)Nc2ccccc2-c2nnn(CC(=O)Nc3cc(C)on3)n2)c1 | 188% | 16.4 µM [rising, partial curve] | – |
| O=C(C1CCC(C(=O)N2CCCCC2)CC1)N1CCCCC1 (stereo not given) | -25.1% | 3.26 µM [falling, full curve, poor fit] | 18.4 µM [falling, single point] |
| COC(=O)c1c(NC(=O)CSc2nncs2)sc2c1CCCCC2 | -17.8% | – | 16.4 µM [rising, single point] |
| Cc1ccc(O)c(C(CC(=O)NC(C)C)c2ccccc2)c1 (stereo not given) | -8.92% | – | 0.58 µM [falling, single point] |
| CCC(C(=O)Nc1ccon1)c1ccccc1 (stereo not given) | – | 0.146 µM [falling, full curve, poor fit] | – |
| COc1ccc(/C=C2/SC(=S)N(CCCC(=O)Nc3cccc(O)c3)C2=O)cc1 | -34.1% | 23.1 µM [falling, single point] | 13 µM [falling, partial curve] |

| SMILES | cell number change | AC50 [1] | AC50 [2] |
| --- | --- | --- | --- |
| O=C(NCC1CCCO1)c1ccccc1-c1nc(-c2ccccc2F)no1 (stereo not given) | -38.5% | 18.4 µM [falling, single point] | – |
| CCC(=O)NC(=S)Nc1ccccc1OC | -50.9% | 29.1 µM [falling, single point] | 13 µM [falling, partial curve] |
| Cn1nc(-c2ccc(OCC(N)=O)cc2)c2ccccc2c1=O | 123% | 2.59 µM [rising, full curve] | 2.59 µM [rising, partial curve] |
| CCc1cc(=O)oc2cc(OCC(=O)NCCCn3ccnc3)ccc12 | 30% | – | 14.6 µM [rising, partial curve] |
| Cc1ccc(CNC(=O)c2ccc3nc4[nH]c5ccccc5c4nc3c2)cc1 | -30.1% | 4.61 µM [falling, full curve, poor fit] | 3.26 µM [falling, full curve] |
| COc1ccc(NC(=O)C(NC(=O)c2ccc(C)cc2)c2ccccc2)cc1 (stereo not given) | -8.92% | – | 20.6 µM [rising, single point] |
| O=C(CSc1nnnn1-c1ccccc1)CC(=O)Nc1ccc(Cl)cc1 | -8.16% | – | 6.51 µM [falling, partial curve, poor fit] |
| CCOC(=O)c1c(NC(=O)C(C)N2CCN(S(=O)(=O)c3cccs3)CC2)sc2c1CCC(C)C2 (stereo not given) | 76% | 0.461 µM [rising, full curve] | 6.51 µM [rising, partial curve, poor fit] |
| Cc1c(C)c2ccc(OCC(=O)N3CCN(C(=O)C4COc5ccccc5O4)CC3)cc2oc1=O (stereo not given) | -9.51% | – | – |
| CC(=O)Nc1ccccc1OC(C)C(=O)NC(C)c1ccc(F)cc1 (stereo not given) | -8.68% | 0.116 µM [rising, full curve, poor fit] | – |
| Cn1c(SCC(=O)NCc2ccco2)nnc1-c1ccc(S(=O)(=O)N2CCOCC2)cc1 | – | – | 5.17 µM [falling, full curve] |
| CCC(CC)C(=O)N1N=C(c2ccc(NS(C)(=O)=O)cc2)CC1c1ccc(C)cc1 (stereo not given) | -36% | 29.1 µM [falling, single point] | 29.1 µM [falling, single point] |
| COc1ccc2oc(C(=O)OCC(=O)N3CCN(C(C)=O)CC3)c(C)c2c1 | 89% | – | – |
| O=S(=O)(NCc1ccc(F)cc1)c1ccc(-n2cccn2)cc1 | 12.3% | – | – |
| O=C(NCCc1ccccn1)c1ccc(OC(F)F)cc1 | – | 0.00461 µM [falling, full curve, poor fit] | – |
| C(=N\Nc1nc(Nc2ccccc2)nc(N2CCOCC2)n1)/c1c[nH]c2ccccc12 | -40.9% | 5.17 µM [falling, partial curve] | 5.8 µM [falling, partial curve] |
| CC(C)C[C@@H](C(=O)NCc1ccco1)N1C(=O)N2CCc3c([nH]c4ccccc34)[C@@]2(C)C1=O | -9.71% | – | 13 µM [falling, partial curve, poor fit] |
| CCCCCCC(=O)N/N=C/c1ccc(Br)cc1 | -40.3% | 14.6 µM [falling, partial curve] | 1.16 µM [falling, single point] |
| COc1ccccc1NS(=O)(=O)c1cccc(C(=O)N/N=C/c2cn(-c3ccccc3)nc2-c2ccccc2)c1 | -13.9% | 1.64 µM [rising, partial curve] | – |

| SMILES | cell number change | AC50 [1] | AC50 [2] |
| --- | --- | --- | --- |
| O=C(N=Nc1c(O)[nH]c2ccccc12)c1ccccc1NS(=O)(=O)c1cccs1 | -26.3% | 0.58 µM [rising, full curve] | – |
| CC1(C)CC(NCc2ccncc2)CC(C)(C)N1 | -34.7% | 29.1 µM [falling, single point] | 13 µM [falling, partial curve, poor fit] |
| COc1ccc(C(=O)Nc2cccc(NC(C)=O)c2)cc1OC | -0.767% | – | 7.31 µM [rising, partial curve] |
| CCOc1ccccc1NC(=O)C1CC2CCCC(C1)C2=O (stereo not given) | 9.3% | – | 25.9 µM [falling, single point] |
| O=S(=O)(c1cccs1)N1CCN(CC(O)COC2CCCc3ccccc32)CC1 (stereo not given) | -9.35% | – | 2.06 µM [falling, partial curve] |
| CCOc1cc(C2C(C(=O)OC)=C(C)N=C3SC(C)C(=O)N32)ccc1OC(C)=O (stereo not given) | – | – | 29.1 µM [rising, single point] |
| Cc1csc(NC(=O)CSc2nnc(-c3ccncc3)o2)n1 | 18.1% | – | 11.6 µM [rising, partial curve] |
| CN(c1ccc(C(=O)N2CCCCC2)cc1)S(C)(=O)=O | -18.8% | – | – |
| Cc1ccc(C)c(NC(=O)CN(C)C(=O)c2ccc(S(=O)(=O)N3CCCCCC3)cc2)c1 | -0.648% | – | 0.00517 µM [falling, full curve, poor fit] |
| Cc1ccc(C)c(OCCn2c(=O)c3c(ncn3C3CCCC3)n(Cc3ccccc3)c2=O)c1 | 17.7% | – | – |
| N#CC1(NC(=O)COC(=O)Cc2n[nH]c(=O)c3ccccc23)CCCCC1 | 12.5% | – | – |
| COc1cccc(C(=O)N2CCN(C(=O)COc3ccc4ccccc4c3)CC2)c1 | 17.9% | – | 0.116 µM [falling, single point] |
| O=C1CC2(CCCCC2)Oc2ccc(OCC(=O)N3CCOCC3)cc21 | -13.9% | – | 18.4 µM [falling, single point] |
| COc1cccc(N2CCN(c3cnc4ccccc4n3)CC2)c1 | 36.9% | 0.082 µM [rising, full curve] | 0.366 µM [rising, partial curve, poor fit] |
| CC1=C(C(=O)OC(C)(C)C)C(c2ccco2)C(C#N)=C(N)O1 (stereo not given) | -86.1% | 20.6 µM [falling, partial curve, poor fit] | 1.84 µM [falling, partial curve] |
| C=C(C)COc1ccc(-c2ncnc(C(F)(F)F)c2-c2ccccc2)c(O)c1 | 129% | – | 29.1 µM [rising, single point] |
| Cc1cccc(C(=O)NCC(=O)NNC(=O)c2ccccc2O)c1 | -6.39% | – | 0.731 µM [falling, full curve, poor fit] |
| CCC(C)(C)c1ccc(OCCCC[n+]2cccc(C)c2)c(C(C)(C)CC)c1 | -79.3% | 13 µM [falling, partial curve] | – |
| Cc1ccc(N(CC(=O)O)S(C)(=O)=O)cc1Cl | 11.2% | – | 0.0366 µM [rising, single point] |

By substructure: those above with a halogen

| SMILES | cell number change | AC50 [1] | AC50 [2] |
| --- | --- | --- | --- |
| CCCn1c(=O)c(C(=O)NNC(=O)c2ccccc2Cl)c(O)c2ccccc21 | -0.855% | – | 29.1 µM [falling, partial curve, poor fit] |
| Cc1c(Cl)c([N+](=O)[O-])nn1CCCC(=O)Nc1sc2c(c1C(N)=O)CCC(C)C2 (stereo not given) | 11% | – | 8.2 µM [rising, partial curve] |
| CCCCNC(=O)c1onc(CSc2ccc(F)cc2)c1C(=O)NCCCC | 2.91% | – | 2.06 µM [rising, partial curve, poor fit] |
| O=C(NCC1CCCO1)c1ccccc1-c1nc(-c2ccccc2F)no1 (stereo not given) | -38.5% | 18.4 µM [falling, single point] | – |
| O=C(CSc1nnnn1-c1ccccc1)CC(=O)Nc1ccc(Cl)cc1 | -8.16% | – | 6.51 µM [falling, partial curve, poor fit] |
| CC(=O)Nc1ccccc1OC(C)C(=O)NC(C)c1ccc(F)cc1 (stereo not given) | -8.68% | 0.116 µM [rising, full curve, poor fit] | – |
| O=S(=O)(NCc1ccc(F)cc1)c1ccc(-n2cccn2)cc1 | 12.3% | – | – |
| O=C(NCCc1ccccn1)c1ccc(OC(F)F)cc1 | – | 0.00461 µM [falling, full curve, poor fit] | – |
| CCCCCCC(=O)N/N=C/c1ccc(Br)cc1 | -40.3% | 14.6 µM [falling, partial curve] | 1.16 µM [falling, single point] |
| C=C(C)COc1ccc(-c2ncnc(C(F)(F)F)c2-c2ccccc2)c(O)c1 | 129% | – | 29.1 µM [rising, single point] |
| Cc1ccc(N(CC(=O)O)S(C)(=O)=O)cc1Cl | 11.2% | – | 0.0366 µM [rising, single point] |
